Assay results taken from paper PMC6199744, “Development of Chemical Proteomics for the Folateome and Analysis of the Kinetoplastid Folateome” (ACS Infectious Diseases, 2018).
Like-named read-outs stand apart in the source and are kept apart here. This continues a long series; more values of the same kind are listed elsewhere.

System: T. brucei lysate proteins
Assay type: binding, Trypanosoma brucei
Conditions: vehicle control = 1

Nc1nc2c(c(=O)[nH]1)N(C=O)C(CNc1ccc(C(=O)N[C@@H](CCC(=O)O)C(=O)O)cc1)CN2 (stereo partly drawn) [LEU, leucovorin]
fold change (protein TB09.211.2740 GIM5B PROTEIN): 0.98 | fold change (protein TB11.01.5320 SMALL GTPASE, PUTATIVE): 0.98 | fold change (protein TB11.46.0009 HY[…], CONSERVED): 0.97 | fold change (protein TB427TMP.01.2020 HY[…], CONSERVED): 0.67 | fold change (protein TB427TMP.01.2840 HY[…], CONSERVED): 0.87 | fold change (protein TB427TMP.01.3110 HEAT SHOCK PROTEIN 70): 1.39 | fold change (protein TB427TMP.01.4810 HY[…], CONSERVED): 0.89 | fold change (protein TB427TMP.01.6300 PHOSPHATIDYLINOSITOL 3-RELATED KINASE, PUTATIVE): 0.9 | fold change (protein TB427TMP.01.8510 T-COMPLEX PROTEIN 1, ALPHA SUBUNIT, PUTATIVE): 1.21 | fold change (protein TB427TMP.02.0230 HY[…], CONSERVED): 0.78 | fold change (protein TB427TMP.02.0350 HY[…], CONSERVED): 0.95 | fold change (protein TB427TMP.02.0980 HY[…], CONSERVED): 0.82 | fold change (protein TB427TMP.02.1120 ADENYL[…], PUTATIVE): 1.72 | fold change (protein TB427TMP.02.2410 CLATHRIN COAT ASSEMBLY PROTEIN, PUTATIVE): 0.79 | fold change (protein TB427TMP.02.5280 GLYCEROL-3-PHOSPHATE DEHYDROGENASE (FAD-DEPENDENT), MITOCHONDRIAL): 1.38 | fold change (protein TB427TMP.160.2220 HY[…], CONSERVED): 0.81 | fold change (protein TB427TMP.160.3590 CAMP-SPECIFIC PHOSPHODIESTERASE): 1.64 | fold change (protein TB427TMP.160.4240 […] PROTEIN-LIKE PROTEIN): 1.34 | fold change (protein TB427TMP.160.4760 HY[…]): 0.87 | fold change (protein TB427TMP.160.5200 HY[…], CONSERVED): 0.87 | fold change (protein TB427TMP.211.3310 R[…] C, SUBUNIT 3, PUTATIVE): 0.98 | fold change (protein TB427TMP.V1.0370 HY[…], CONSERVED): 0.91 | fold change (protein TB427.01.720 PHOSPH[…]): 1.44 | fold change (protein TB427.02.4130 ENOYL-COA HYDRATASE/ENOYL-COA ISOMERASE/3-HYDROXYACYL-COA DEHYDROGENASE, PUTATIVE): 0.85 | fold change (protein TB427.02.5820 HY[…], CONSERVED): 0.81 | fold change (protein TB427.02.5850 SMALL NUCLEAR RIBONUCLEOPROTEIN SMD2): 1.33 | fold change (protein TB427.03.4190 ENDOSOMAL INTEGRAL MEMBRANE PROTEIN, PUTATIVE): 0.9 | fold change (protein TB427.03.4600 HY[…], CONSERVED): 1.33 | fold change (protein TB427.04.1540 HY[…], CONSERVED): 1.26 | fold change (protein TB427.04.1970 HY[…], CONSERVED): 0.9 | fold change (protein TB427.04.3740 FLAGELLAR […] PROTEIN): 0.63 | fold change (protein TB427.04.4860 AMINO ACID TRANSPORTER 8, PUTATIVE): 0.86 | fold change (protein TB427.04.560 DYNEIN HEAVY CHAIN, PUTATIVE): 0.73 | fold change (protein TB427.04.960 HY[…], CONSERVED): 0.88 | fold change (protein TB427.05.1490 HY[…], CONSERVED): 0.73 | fold change (protein TB427.05.3800 GLUTAMINE HYDROLYSING (NOT AMMONIA-DEPENDENT) […] PHOSPHATE SYNTHASE, PUTATIVE): 0.81 | fold change (protein TB427.05.4460 MAJOR VAULT PROTEIN, PUTATIVE): 0.97 | fold change (protein TB427.05.520 STOMATIN-LIKE PROTEIN, PUTATIVE): 1 | fold change (protein TB427.05.550 VACUOLAR ATP SYNTHASE, PUTATIVE): 1.4 | fold change (protein TB427.06.1800 PROTEIN PHOSPHATASE 2C, PUTATIVE): 1.48 | fold change (protein TB427.06.2010 HY[…], CONSERVED): 1.4 | fold change (protein TB427.06.2250 RAC SERINE-THREONINE KINASE, PUTATIVE): 1.23 | fold change (protein TB427.06.3280 […] SUBUNIT 1, PUTATIVE): 0.74 | fold change (protein TB427.06.4890 S-ADENOSYL[…], PUTATIVE): 1.25 | fold change (protein TB427.07.3370 HY[…], CONSERVED): 1.18 | fold change (protein TB427.07.4570 INOSINE-GUANINE […]): 1.28 | fold change (protein TB427.07.5750 HY[…], CONSERVED): 1.6 | fold change (protein TB427.08.1840 HY[…], CONSERVED): 0.66 | fold change (protein TB427.08.1950 HY[…], CONSERVED): 1.2 | fold change (protein TB427.10.1170 INTR[…] PROTEIN IFT172, PUTATIVE): 0.8 | fold change (protein TB427.10.13280 HY[…], CONSERVED): 0.94 | fold change (protein TB427.10.1510 NOT1): 0.93 | fold change (protein TB427.10.15360 HY[…], CONSERVED): 0.86 | fold change (protein TB427.10.2900 IMPORTIN BETA-1 SUBUNIT, PUTATIVE): 0.91 | fold change (protein TB427.10.3260 LONG-CHAIN-FATTY-ACID--COA LIGASE 5, PUTATIVE): 1.18 | fold change (protein TB427.10.4110 60S RIBOSOMAL PROTEIN L30): 1.25 | fold change (protein TB427.10.4600 HY[…], CONSERVED): 1.2 | fold change (protein TB427.10.5250 HY[…], CONSERVED): 0.84 | fold change (protein TB427.10.6940 DIPEPTIDYL-PEPTIDASE 8-LIKE, PUTATIVE): 1.25 | fold change (protein TB427.10.7230 HY[…], CONSERVED): 0.76 | fold change (protein TB427.10.7550 HY[…], CONSERVED): 0.9 | fold change (protein TB427.10.8420 TARGET OF RAPAMYCIN (TOR) KINASE 1): 0.74 | fold change (protein TB427.10.9800 60S RIBOSOMAL PROTEIN L22): 0.91 | fold change (protein TB927.10.12330 HY[…], CONSERVED): 0.89 | fold change (protein TB927.10.12940 HY[…], CONSERVED): 0.96 | fold change (protein TB927.10.14170 AQUAPORIN 9, PUTATIVE): 0.99 | fold change (protein TB927.10.5330 40S RIBOSOMAL PROTEIN S18, PUTATIVE): 0.92 | fold change (protein TB927.10.6510 CHAPERONIN HSP60, MIT[…]): 1.57 | fold change (protein TB927.10.7090 A[…]): 1.36 | fold change (protein TB927.2.4930 ESTERASE, PUTATIVE): 0.94 | fold change (protein TB927.2.6320 ADENOSINE TRANSPORTER 2): 1.1 | fold change (protein TB927.3.1380 ATP SYNTHASE BETA CHAIN, MIT[…]): 0.81 | fold change (protein TB927.3.4360 40S RIBOSOMAL PROTEIN S15A, PUTATIVE): 0.9 | fold change (protein TB927.3.5490 FLAGELLAR TRANSPORT PROTEIN, PUTATIVE): 0.94 | fold change (protein TB927.3.910 GAMMA-TUBULIN): 1.26 | fold change (protein TB927.5.1930 HY[…], CONSERVED): 0.94 | fold change (protein TB927.6.2210 HY[…], CONSERVED): 0.75 | fold change (protein TB927.7.2140 HY[…]): 0.96 | fold change (protein TB927.7.2500 […] SUBUNIT 1): 1.1 | fold change (protein TB927.7.2700 NADH-CYTOCHROME B5 REDUCTASE, PUTATIVE): 1 | fold change (protein TB927.7.2980 HY[…], CONSERVED): 0.86 | fold change (protein TB927.7.5340 HY[…], CONSERVED): 0.67 | fold change (protein TB927.7.7040 METHYLTHIOADENOSINE PHOSPHORYLASE, PUTATIVE): 0.76 | fold change (protein TB927.7.710 HEAT SHOCK 70 KDA PROTEIN, PUTATIVE): 1.39
